# PubChem BioAssay AID686938 – Drosophila RNAi Screening Center – 2013
# Test: 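Looking for CRAC channel components and the factors controlling them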 (primary screen)
# Cell system: Drosophila S2R+ cells
# Knock-down reagent: long dsRNA against Drosophila genes, about 0.25 µg dsRNA per well, roughly 10,000 cells
# Duration: 5 days of knock-down before the calcium assay
# Challenge: thapsigargin (SERCA pump blocker) to empty calcium stores; entry signal taken 4 min after adding it
# Read-out: 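Per-well fluo-4 fluorescence in two replicates, unnormalised, measured in resting cells and 4 min after store depletion by the SERCA blocker thapsigargin; ratio of the two present in few wells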
# Scale: calcium entry signal: higher = stronger calcium signal after store depletion; entry to resting ratio: higher = more calcium entry relative to resting level; resting calcium signal: higher = higher resting calcium signal
# Active means: 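Called when the plate z-score of the entry-to-rest ratio, mean of duplicates, falls below −3; wells with low overall dye signal (Fmax z below −2) or more than five off-targets excluded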
# Calls: active = strongly reduced calcium entry; inactive = no strong reduction
# The deposit covers about 23,000 reagents; this is an unselected part of those that have a named target and a result. Over the whole deposit, 75 (0.33%) got an active call. 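Raw plate signals without normalisation; calls rest on plate z-scores that were not deposited; ratio present for only 364 wells.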 Not stated in the record: the dose of the treatment.
gene,PubChem SID,"calcium entry signal, replicate 1 (fluorescence units)","calcium entry signal, replicate 2 (fluorescence units)",entry to resting ratio,"resting calcium signal, replicate 1 (fluorescence units)","resting calcium signal, replicate 2 (fluorescence units)",Outcome
CG10428,SID104181846,4.23e7,,,1.95e7,,inactive
CG16704,SID104180267,3.98e7,3.84e7,,1.99e7,1.79e7,inactive
CG33258,SID104189207,3.71e7,4.69e7,,1.66e7,2.44e7,inactive
CG43091,SID104193363,3.94e7,3.00e7,,2.11e7,1.64e7,inactive
Sec10 (Secretory 10),SID104196845,2.67e7,2.98e7,,1.41e7,1.44e7,inactive
AQP (aquaporin),SID104185914,2.19e7,3.43e7,,1.24e7,1.58e7,inactive
Axud1 (AXIN1 up-regulated 1),SID104180062,3.38e7,3.18e7,,1.66e7,1.47e7,inactive
GlcT (Glucosylceramide synthase),SID104184317,3.61e7,,,1.83e7,,inactive
ru (roughoid),SID104188050,3.53e7,4.65e7,,1.74e7,1.91e7,inactive
Pura (Puratrophin-1-like),SID104188683,4.47e7,5.42e7,,2.35e7,2.43e7,inactive
Pura (Puratrophin-1-like),SID104190654,3.43e7,4.51e7,,1.52e7,2.12e7,inactive
Pura (Puratrophin-1-like),SID104190656,3.56e7,4.89e7,,1.56e7,2.41e7,inactive
Pura (Puratrophin-1-like),SID104190657,3.40e7,5.10e7,,1.71e7,2.37e7,inactive
Pura (Puratrophin-1-like),SID104190658,3.52e7,5.52e7,,1.64e7,2.36e7,inactive
CG18265,SID104190102,4.29e7,6.45e7,,2.02e7,2.83e7,inactive
CG10252,SID104194013,3.76e7,3.85e7,,1.78e7,1.75e7,inactive
Ing5 (Inhibitor of growth family member 5),SID104182980,3.90e7,,,1.86e7,,inactive
chn (charlatan),SID104185878,3.81e7,3.00e7,,1.79e7,1.46e7,inactive
CG13559,SID104183989,3.39e7,4.50e7,,1.73e7,2.00e7,inactive
Pgcl (Pepsinogen C-like),SID104198607,3.95e7,3.96e7,2.3,1.74e7,1.57e7,inactive
Ric (Ras-related protein interacting with calmodulin),SID104187324,2.84e7,3.80e7,,1.29e7,1.72e7,inactive
Klp64D (Kinesin-like protein at 64D),SID104190996,3.36e7,6.17e7,,1.59e7,2.77e7,inactive
Cap-D2 (CAP-D2 condensin subunit),SID104195193,2.95e7,2.48e7,,1.62e7,1.43e7,inactive
Prosbeta3 (Proteasome beta3 subunit),SID104196593,1.75e7,2.05e7,,1.29e7,1.30e7,inactive

Part of the list above, reformatted.
{"gene":"Sec10 (Secretory 10)","PubChem SID":"SID104196845","calcium entry signal, replicate 1 (fluorescence units)":2.67e7,"calcium entry signal, replicate 2 (fluorescence units)":2.98e7,"resting calcium signal, replicate 1 (fluorescence units)":1.41e7,"resting calcium signal, replicate 2 (fluorescence units)":1.44e7,"Outcome":"inactive"}
{"gene":"AQP (aquaporin)","PubChem SID":"SID104185914","calcium entry signal, replicate 1 (fluorescence units)":2.19e7,"calcium entry signal, replicate 2 (fluorescence units)":3.43e7,"resting calcium signal, replicate 1 (fluorescence units)":1.24e7,"resting calcium signal, replicate 2 (fluorescence units)":1.58e7,"Outcome":"inactive"}
